# Test results: PubChem BioAssay AID188 (DTP/NCI, 2004)
# Values are animals surviving of animals treated; these mice carried no tumour. Counts of survivors are from the toxicity check (mostly the fifth day) where no day follows; animals may have died later. Schedules are NCI's codes, read here as Q, the interval in days (D) or hours (H), X, the number of doses.
# Test system: CD2F1 mice, nontumored, toxicity/survival
# Experiment: NCI In Vivo Anticancer Drug Screen. Data for tumor model Nontumored Animals (Toxicity Test) in CD2F1 (CDF1) mice
# Conditions: vehicle: saline
compound,measurement,setting,value
CCN(CC)CCNc1ccc(CO)c2sc3ccccc3c(=O)c12,survivor count,"dose: 4.0 mg/kg/injection, schedule: Q03HX008 (ip)",8 of 8
same,survivor count,"dose: 4.0 mg/kg/injection, schedule: Q03HX016 (ip)",8 of 8
same,survivor count,"dose: 4.0 mg/kg/injection, schedule: Q03HX024 (ip)",8 of 8
same,survivor count,"dose: 8.0 mg/kg/injection, schedule: Q03HX008 (ip)",8 of 8
same,survivor count,"dose: 8.0 mg/kg/injection, schedule: Q03HX016 (ip)",8 of 8
same,survivor count,"dose: 8.0 mg/kg/injection, schedule: Q03HX024 (ip)",8 of 8
same,survivor count,"dose: 16.0 mg/kg/injection, schedule: Q01DX009 (ip)",8 of 8
same,survivor count,"dose: 16.0 mg/kg/injection, schedule: Q01DX009 (sc)",8 of 8
same,survivor count,"dose: 16.0 mg/kg/injection, schedule: Q03HX008 (ip)",8 of 8
same,survivor count,"dose: 16.0 mg/kg/injection, schedule: Q03HX016 (ip)",8 of 8
same,survivor count,"dose: 16.0 mg/kg/injection, schedule: Q03HX024 (ip)",8 of 8
same,survivor count,"dose: 32.0 mg/kg/injection, schedule: Q01DX001 (ip)",8 of 8
same,survivor count,"dose: 32.0 mg/kg/injection, schedule: Q01DX001 (sc)",8 of 8
same,survivor count,"dose: 32.0 mg/kg/injection, schedule: Q01DX009 (ip)",8 of 8
same,survivor count,"dose: 32.0 mg/kg/injection, schedule: Q01DX009 (sc)",8 of 8
same,survivor count,"dose: 32.0 mg/kg/injection, schedule: Q03HX008 (ip)",8 of 8
same,survivor count,"dose: 32.0 mg/kg/injection, schedule: Q03HX016 (ip)",7 of 8
same,survivor count,"dose: 32.0 mg/kg/injection, schedule: Q03HX024 (ip)",8 of 8
same,survivor count,"dose: 32.0 mg/kg/injection, schedule: Q04DX003 (ip)",8 of 8
same,survivor count,"dose: 32.0 mg/kg/injection, schedule: Q08DX002 (ip)",8 of 8
same,survivor count,"dose: 64.0 mg/kg/injection, schedule: Q01DX001 (ip)",8 of 8
same,survivor count,"dose: 64.0 mg/kg/injection, schedule: Q01DX001 (sc)",8 of 8
same,survivor count,"dose: 64.0 mg/kg/injection, schedule: Q01DX009 (ip)",7 of 8
same,survivor count,"dose: 64.0 mg/kg/injection, schedule: Q01DX009 (oral)",8 of 8
same,survivor count,"dose: 64.0 mg/kg/injection, schedule: Q01DX009 (sc)",8 of 8
same,survivor count,"dose: 64.0 mg/kg/injection, schedule: Q03HX008 (ip)",8 of 8
same,survivor count,"dose: 64.0 mg/kg/injection, schedule: Q03HX016 (ip)",8 of 8
same,survivor count,"dose: 64.0 mg/kg/injection, schedule: Q03HX024 (ip)",7 of 8
same,survivor count,"dose: 64.0 mg/kg/injection, schedule: Q04DX003 (ip)",8 of 8
same,survivor count,"dose: 64.0 mg/kg/injection, schedule: Q08DX002 (ip)",8 of 8
same,survivor count,"dose: 128.0 mg/kg/injection, schedule: Q01DX001 (ip)",8 of 8
same,survivor count,"dose: 128.0 mg/kg/injection, schedule: Q01DX001 (sc)",8 of 8
same,survivor count,"dose: 128.0 mg/kg/injection, schedule: Q01DX009 (ip)",8 of 8
same,survivor count,"dose: 128.0 mg/kg/injection, schedule: Q01DX009 (oral)",8 of 8
same,survivor count,"dose: 128.0 mg/kg/injection, schedule: Q01DX009 (sc)",8 of 8
same,survivor count,"dose: 128.0 mg/kg/injection, schedule: Q04DX003 (ip)",8 of 8
same,survivor count,"dose: 128.0 mg/kg/injection, schedule: Q08DX002 (ip)",8 of 8
same,survivor count,"dose: 256.0 mg/kg/injection, schedule: Q01DX001 (ip)",8 of 8
same,survivor count,"dose: 256.0 mg/kg/injection, schedule: Q01DX001 (oral)",8 of 8
same,survivor count,"dose: 256.0 mg/kg/injection, schedule: Q01DX001 (sc)",8 of 8
same,survivor count,"dose: 256.0 mg/kg/injection, schedule: Q01DX009 (ip)",0 of 8
same,survivor count,"dose: 256.0 mg/kg/injection, schedule: Q01DX009 (oral)",7 of 8
same,survivor count,"dose: 256.0 mg/kg/injection, schedule: Q01DX009 (sc)",1 of 8
same,survivor count,"dose: 256.0 mg/kg/injection, schedule: Q04DX003 (ip)",5 of 8
same,survivor count,"dose: 256.0 mg/kg/injection, schedule: Q08DX002 (ip)",7 of 8
same,survivor count,"dose: 512.0 mg/kg/injection, schedule: Q01DX001 (ip)",0 of 8
same,survivor count,"dose: 512.0 mg/kg/injection, schedule: Q01DX001 (oral)",7 of 8
same,survivor count,"dose: 512.0 mg/kg/injection, schedule: Q01DX001 (sc)",8 of 8
same,survivor count,"dose: 512.0 mg/kg/injection, schedule: Q01DX009 (oral)",3 of 8
same,survivor count,"dose: 512.0 mg/kg/injection, schedule: Q04DX003 (ip)",0 of 8
same,survivor count,"dose: 512.0 mg/kg/injection, schedule: Q08DX002 (ip)",0 of 8
same,survivor count,"dose: 1024.0 mg/kg/injection, schedule: Q01DX001 (oral)",8 of 8
same,survivor count,"dose: 1024.0 mg/kg/injection, schedule: Q01DX009 (oral)",0 of 8
same,survivor count,"dose: 2048.0 mg/kg/injection, schedule: Q01DX001 (oral)",4 of 8
